These are yes or no findings as the source states them, for the method shown. Some results given as binding are weak or reduced against the parent protein; the word gives no strength.

The chains behind the UniProt entries cited, without tags or fusion partners. Where a name states a change or a piece, a line headed by the entry shows the natural chain unless it says otherwise. Residues count along the entry.
UniProt Q02763: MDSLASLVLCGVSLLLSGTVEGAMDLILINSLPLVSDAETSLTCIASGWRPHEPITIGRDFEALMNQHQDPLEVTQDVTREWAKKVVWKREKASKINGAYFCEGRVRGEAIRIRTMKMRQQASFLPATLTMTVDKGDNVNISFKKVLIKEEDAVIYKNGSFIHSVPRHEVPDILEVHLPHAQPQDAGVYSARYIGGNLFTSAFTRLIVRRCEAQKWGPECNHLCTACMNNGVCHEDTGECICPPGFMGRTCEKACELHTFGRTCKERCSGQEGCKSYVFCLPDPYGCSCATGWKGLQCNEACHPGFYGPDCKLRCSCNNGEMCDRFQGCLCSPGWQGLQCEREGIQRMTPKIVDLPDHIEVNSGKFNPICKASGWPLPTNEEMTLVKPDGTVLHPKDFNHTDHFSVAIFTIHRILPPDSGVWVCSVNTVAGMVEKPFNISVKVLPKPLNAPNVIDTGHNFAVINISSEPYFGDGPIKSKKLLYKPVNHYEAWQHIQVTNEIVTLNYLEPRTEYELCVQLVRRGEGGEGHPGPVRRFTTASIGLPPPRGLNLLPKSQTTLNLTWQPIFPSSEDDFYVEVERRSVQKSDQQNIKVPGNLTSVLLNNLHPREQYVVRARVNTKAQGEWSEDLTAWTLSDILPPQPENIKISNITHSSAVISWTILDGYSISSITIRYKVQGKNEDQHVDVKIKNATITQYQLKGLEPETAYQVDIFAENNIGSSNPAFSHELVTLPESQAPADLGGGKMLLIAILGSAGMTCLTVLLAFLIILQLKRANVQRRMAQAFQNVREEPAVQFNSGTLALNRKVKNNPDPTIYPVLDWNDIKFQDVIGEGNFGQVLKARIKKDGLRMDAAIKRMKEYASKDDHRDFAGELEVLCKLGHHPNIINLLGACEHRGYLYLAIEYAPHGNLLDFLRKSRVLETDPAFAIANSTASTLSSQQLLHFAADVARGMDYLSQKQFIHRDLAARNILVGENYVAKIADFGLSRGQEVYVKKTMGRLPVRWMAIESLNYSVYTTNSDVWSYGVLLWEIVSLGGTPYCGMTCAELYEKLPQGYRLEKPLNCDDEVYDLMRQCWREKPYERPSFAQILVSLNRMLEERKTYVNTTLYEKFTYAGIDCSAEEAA
Cell-expressed Tie2 on TIME cells (human (endogenous in TIME cells)): residues 23-1124 of Q02763

The target in test [1] is Wild-type Ang2 binding domain (Ang2-BDWT), yeast-displayed (human) (UniProt O15123). The test is described as follows: flow cytometry on cells; Ang2-BD displayed on yeast, soluble Tie2-Fc in 20 mM Hepes pH 7.0, 150 mM NaCl, 1% BSA, 1 h at room temperature; detected with anti-human Fc FITC; binding MFI divided by expression MFI (c-Myc) and normalized to Ang2-BDWT; only the binder purified. Background: A flow cytometer gives signals particle by particle.

The target in test [2] is Cell-expressed Tie2 on TIME cells (human (endogenous in TIME cells)) (UniProt Q02763). The test is described as follows: flow cytometry on cells; 10^5 TIME cells with different concentrations of Ang2-BD variants in PBS with 0.1% BSA, 2 h at 4°C; detected with APC anti-FLAG antibody; only the binder purified.
The target is the same in test [3]. The test is described as follows: flow cytometry on cells; competitive binding on TIME cells: Ang2-BD variants without and with 400 ng/ml Ang1 (1000 ng/ml Ang1 also for Ang2-BD_(C2.36)); anti-FLAG detection; only the binder purified.

For “Recombinant human Tie2 (Ala23-Lys745) Fc fusion, soluble Tie2-Fc (from UniProt Q02763 23-745)”, the binding entry in test [1] is reported as “binds”.

B1: Ang2-BDWT, soluble (domain or fragment, human, UniProt O15123 281-496, looked up)
chain: FRDCAEVFKSGHTTNGIYTLTFPNSTEEIKAYCDMEAGGGGWTIIQRREDGSVDFQRTWKEYKVGFGNPSGEYWLGNEFVSQLTNQQRYVLKIHLKDWEGNEAYSLYEHFYLSSEELNYRIHLKGLTGTAGKISSISQPGNDFSTKDGDNDKCICKCSQMLTGGWWFDACGPSNLNGMYYPQRQNTNKFNGIKWYYWKGSGYSLKATTMMIRPADF
notes: N-linked carbohydrates removed with Endo Hf; also called wild-type Ang2-BD; parental Ang2-BD; source: Pichia pastoris GS115, purified from culture supernatant (HisTrap, Endo Hf treatment, Superdex 75); not shown: FLAG, N-terminal, kept
In the case of B1, the binding result in test [2] and in test [3] was “binds” throughout.

The values are drawn from article PMC5464891, “Utilizing combinatorial engineering to develop Tie2 targeting antagonistic angiopoetin-2 ligands as candidates for anti-angiogenesis therapy” (Oncotarget, 2017).
